The assay concerns the target T1, 重组弓形虫毒力因子ROP18 (Toxoplasma gondii) (UniProt Q2PAY2).
T1 sequence (looked up): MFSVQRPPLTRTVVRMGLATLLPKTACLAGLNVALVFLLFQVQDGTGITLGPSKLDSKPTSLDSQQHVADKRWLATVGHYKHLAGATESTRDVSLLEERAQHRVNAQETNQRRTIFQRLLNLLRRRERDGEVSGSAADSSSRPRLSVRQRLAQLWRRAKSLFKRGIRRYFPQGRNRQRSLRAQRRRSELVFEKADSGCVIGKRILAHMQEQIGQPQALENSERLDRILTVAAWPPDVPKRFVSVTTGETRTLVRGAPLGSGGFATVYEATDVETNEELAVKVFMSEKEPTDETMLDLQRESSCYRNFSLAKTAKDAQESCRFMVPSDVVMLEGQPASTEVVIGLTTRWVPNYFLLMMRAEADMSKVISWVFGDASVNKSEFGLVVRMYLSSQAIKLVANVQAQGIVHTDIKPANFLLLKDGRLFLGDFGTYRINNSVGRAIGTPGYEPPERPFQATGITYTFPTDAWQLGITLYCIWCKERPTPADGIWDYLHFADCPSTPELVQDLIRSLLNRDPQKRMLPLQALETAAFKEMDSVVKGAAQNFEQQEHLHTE
The assay can be described thus: ELISA of crude periplasmic extract on coated antigen, anti-His detection. Background: ELISA stands for enzyme-linked immunosorbent assay.

We go through 1 molecule from CN114133451A.

Results are given in words; binding and its absence hold for the method and conditions named. Some binding calls cover weakened binding; strength is not graded here.

B1: 弓形虫毒力因子ROP18纳米抗体22号克隆株 (VHH, not shown: small tags and cut ends)
VHH: QVQLVESGGGSVQAGGSLRLSCVASRYTYTYSTYCLGWFRQAPGKEREEIAIIDSDGGARYADSVKGRFTISRDNAKSTLYLHMNSLKPDDTAMYSCAAGRPAPSLGYKCMYNSRHKGTLVTVSS
As for B1, the binding entry was “binds”.
